In this assay the test system is SARS-CoV-2. In words: microbe, parasite or virus in culture. Particulars: Severe acute respiratory syndrome coronavirus 2, Caco-2, 48 h, read-out: % Inh. (% Inhibition of SARS-CoV-2).

As for `Cc1cc(/C=C/c2ccc3cc(N(C)C)ccc3[n+]2C)c(C)n1-c1ccccc1` [pyrvinium], the inhibition – broadly, the change of the read-out against control, counted positive when it falls – at 10 µM was determined as 74.7%.

Source of the values: patent US20230126310A1 (priority 2020, published 2023).
